Data as given in PubChem BioAssay AID1259254 (NCATS, 2017)
This is one part, drawn at random, of about 59,000 reagents. About 1,550 of all reagents (2.6%) were called active. 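G2 share is only a proxy for re-replication; each gene was hit by three separate siRNAs, and active genes were retested.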 The numbers tell different reagents against one gene apart. Not all columns of the deposit are shown. No sequences are given here. Not given: the amount of reagent.

Aim: 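Gene knock-downs that lead to re-replication, shown by excess G2 DNA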 (primary screen)
Cells: human HCT116 colorectal cancer cells
Knock-down reagent: single siRNA against human genes
Time to read-out: 3 days
Measured: 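Nuclei stained with Hoechst and imaged; cell-cycle phase assigned by DNA content; G2 share scaled per plate, non-targeting siRNA 0%, GMNN siRNA 100%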
Reading the numbers: G2 robust z-score: higher = more G2 cells, more excess DNA replication
Call rule: 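An siRNA counts as active if its G2 robust z-score lies at least 5 MADs above the screen median; here such calls match roughly 38% of GMNN control or more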

MME (membrane metalloendopeptidase) #1 — G2 robust z-score = -0.729; Call = inactive
MME (membrane metalloendopeptidase) #2 — G2 robust z-score = -0.286; Call = inactive
MME (membrane metalloendopeptidase) #3 — G2 robust z-score = 0.066; Call = inactive
LYL1 (LYL1 basic helix-loop-helix family member) #1 — G2 robust z-score = -0.234; Call = inactive
LYL1 (LYL1 basic helix-loop-helix family member) #2 — G2 robust z-score = 1.35; Call = inactive
LYL1 (LYL1 basic helix-loop-helix family member) #3 — G2 robust z-score = 1.25; Call = inactive

Not a retest: entries from further up.
LYL1 (LYL1 basic helix-loop-helix family member) #2 — G2 robust z-score = 1.35; Call = inactive
LYL1 (LYL1 basic helix-loop-helix family member) #3 — G2 robust z-score = 1.25; Call = inactive

The listing continues:
RASSF7 (Ras association domain family member 7) #1 — G2 robust z-score = -0.632; Call = inactive
RASSF7 (Ras association domain family member 7) #2 — G2 robust z-score = -0.658; Call = inactive
RASSF7 (Ras association domain family member 7) #3 — G2 robust z-score = -0.576; Call = inactive
RPL13AP20 (ribosomal protein L13a pseudogene 20) #1 — G2 robust z-score = 0.577; Call = inactive
RPL13AP20 (ribosomal protein L13a pseudogene 20) #2 — G2 robust z-score = 1.41; Call = inactive
RPL13AP20 (ribosomal protein L13a pseudogene 20) #3 — G2 robust z-score = 4.91; Call = inactive
